# Assay results from PubChem BioAssay AID2685 (National Center for Advancing Translational Sciences (NCATS), 2010).
# Some of the results follow. Further columns of the screen follow, without active or inactive calls. Most of these compounds were active or inconclusive in the main read-out, so they are no random draw. Words in brackets tell the shape of the fitted curve; partial curves, single points and poor fits give uncertain potencies.
# Assay: qHTS Assay for Lipid Storage Modulators in Drosophila S3 Cells;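 as to cell number change: cells counted by Cell Tracker Red CMTPX staining in the red channel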
# Conditions: BODIPY lipid droplet fluorescence, 18-24 h; for cell number change: measured here: cell count max response, cells fed with added oleic acid
# How it was run: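 Laser-scanning cytometry quantifies lipid droplet accumulation (500–530 nm total intensity; droplet/cell object ratio) in oleic acid-fed (400 uM added) Drosophila S3 cells treated with a concentration series. 20 uM Triacsin C defined 100% inhibition.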
# [1] = measured here: lipid fluorescence (Fed channel) AC50, cells fed with added oleic acid
# [2] = measured here: cell number channel AC50, cells fed with added oleic acid
Structure (SMILES),cell number change,AC50 [1],AC50 [2]
CCOc1ccc2nc(SCC(=O)c3ccc(C)s3)sc2c1,1.28%,,
Cc1cc(C)cc(NC(=S)N2CCC(NC(=O)c3ccc(F)cc3)CC2)c1,4.96%,,
COc1ccc(CN(C)CC(=O)NC(=O)NCc2ccccc2)cc1OC,10.1%,"8.2 µM [rising, partial curve, poor fit]",
O=C(CCN1C(=O)/C(=C/c2ccc3c(c2)OCO3)SC1=S)Nc1cccc(C(=O)O)c1,-5.41%,"29.1 µM [rising, single point]",
CCCCCCn1c2c(c(=N)c3c1CCC3)CCC2,-132%,,
Cn1c(SCC(=O)NC(C)(C)C)nnc1-c1cccc(NC(=O)c2ccccc2F)c1,95.6%,"11.6 µM [rising, partial curve, poor fit]","1.84 µM [rising, partial curve]"
Cc1ccc(C2=NOC3(CC(=O)N(c4ccccc4)C3=O)C2)cc1 (stereo unspecified),23.9%,"32.6 µM [rising, single point]",
COCCNC(=S)NC1CC2CCC(C1)N2Cc1ccccc1 (stereo unspecified),12.5%,"0.146 µM [rising, full curve, poor fit]",
COc1ccc(/C(C)=N/NC(=O)c2nnn(-c3nonc3N)c2-c2cccs2)cc1,26.2%,"29.1 µM [rising, single point]",
COc1cc(OC)c2c(N)c(C#N)c(C(F)(F)C(F)(F)F)nc2c1,115%,"2.91 µM [rising, full curve]","2.59 µM [rising, full curve]"
Cc1ccc(S(=O)(=O)NCC(=O)N(CC(=O)NC(C)(C)C)Cc2cccs2)cc1,-11.8%,"0.58 µM [falling, single point]",
O=C(Nc1cccc(Cn2cccn2)c1)c1cc2c(s1)CCCC2,2.7%,,
CC(=O)Nc1ccc(-n2nnnc2SCC(=O)Nc2cccc(NC(=O)c3ccco3)c2)cc1,10%,"25.9 µM [rising, partial curve, poor fit]",
Cc1c(C(=O)O)oc2ccc(S(=O)(=O)NC3CCCCCCC3)cc12,7.75%,"13 µM [rising, single point]",
CCOC(=O)c1ccc(NC(=O)c2cc3c(C)nn(-c4ccccc4Cl)c3s2)s1,14.1%,,"6.51 µM [rising, single point]"
COc1cccc2c1C(=O)c1c(O)c3c(c(O)c1C2=O)C[C@@](O)(C(=O)CO)C[C@@H]3O[C@H]1C[C@H](N)[C@H](O)[C@H](C)O1,-93.4%,"1.3 µM [falling, full curve]","2.31 µM [falling, full curve]"

# Limited to AC50 [2] and AC50 [1] (2 entries from above):
Structure (SMILES) | AC50 [2] | AC50 [1]
Cc1c(C(=O)O)oc2ccc(S(=O)(=O)NC3CCCCCCC3)cc12 |  | 13 µM [rising, single point]
CCOC(=O)c1ccc(NC(=O)c2cc3c(C)nn(-c4ccccc4Cl)c3s2)s1 | 6.51 µM [rising, single point] | 
